{
  "source": "patent US20020169394A1",
  "about": "“Integrated tissue poration, fluid harvesting and analysis device, and method therefor” (priority 1993, published 2002)",
  "system": "subjects left forearm",
  "assay": "Lidocaine delivery through porated stratum corneum with ultrasound; numbness assessed by rubbing a 30 gauge wire across the test site",
  "format": "in vivo, human",
  "conditions": "Site 2 porated plus ultrasound; first 5 minute application",
  "excerpt": "The lidocaine solution also contained a chemical permeation enhancer formulation designed to enhance its passive diffusion across the stratum corneum. A drawing of an illustrative delivery apparatus 300 is shown in FIG. 50, wherein the apparatus comprises a housing 304 enclosing a reservoir 308 for holding a drug-containing solution 312. The top portion of the housing comprises an ultrasonic transducer 316 for providing sonic energy to aid in transporting the drug-containing solution through micropores; 320 in the stratum corneum 324. A port 328 in the ultrasonic transducer permits application of pressure thereto for further aiding in transporting the drug-containing solution through the micropores in the stratum corneum. The delivery apparatus is applied to a selected area of an individual's skin such that it is positioned over at least one, and preferably a plurality, of micropores. […]\nFive subjects were tested for the effectiveness of drug delivery using poration together with ultrasound. […] The measured output of the amplifier to the transducer was 0.090 watts RMS.\nAfter application of the lidocaine, sensation measurements were made by rubbing a 30 gauge wire across the test site. […] Both sites were assessed for numbness using a scale of 10 to 0, where 10 indicated no numbness and 0 indicated complete numbness as reported by the test subjects. […]",
  "data": [
    {"smiles": "CCN(CC)CC(=O)Nc1c(C)cccc1C", "note": "[lidocaine]", "values": [
      {"measurement": "diameter of circle outside which no numbness", "value": 2.5, "unit": "cm"}
    ]}
  ]
}
